Measurements as given in patent publication US20250281630A1 (TORAY INDUSTRIES, published 2025).
Changes are numbered by the printed parent chain. These are yes or no findings as the source states them, for the method shown. Some binding calls cover weakened binding; strength is not graded here. Values belong to the binder of their own block, whether it stands above or below them.

Legend:
[1] = target: T1, human CAPRIN-1 on the cell membrane surface of human cancer cells (human) (UniProt Q14444); assay: HT29 cells, as shown in Example 5
T1 sequence (looked up): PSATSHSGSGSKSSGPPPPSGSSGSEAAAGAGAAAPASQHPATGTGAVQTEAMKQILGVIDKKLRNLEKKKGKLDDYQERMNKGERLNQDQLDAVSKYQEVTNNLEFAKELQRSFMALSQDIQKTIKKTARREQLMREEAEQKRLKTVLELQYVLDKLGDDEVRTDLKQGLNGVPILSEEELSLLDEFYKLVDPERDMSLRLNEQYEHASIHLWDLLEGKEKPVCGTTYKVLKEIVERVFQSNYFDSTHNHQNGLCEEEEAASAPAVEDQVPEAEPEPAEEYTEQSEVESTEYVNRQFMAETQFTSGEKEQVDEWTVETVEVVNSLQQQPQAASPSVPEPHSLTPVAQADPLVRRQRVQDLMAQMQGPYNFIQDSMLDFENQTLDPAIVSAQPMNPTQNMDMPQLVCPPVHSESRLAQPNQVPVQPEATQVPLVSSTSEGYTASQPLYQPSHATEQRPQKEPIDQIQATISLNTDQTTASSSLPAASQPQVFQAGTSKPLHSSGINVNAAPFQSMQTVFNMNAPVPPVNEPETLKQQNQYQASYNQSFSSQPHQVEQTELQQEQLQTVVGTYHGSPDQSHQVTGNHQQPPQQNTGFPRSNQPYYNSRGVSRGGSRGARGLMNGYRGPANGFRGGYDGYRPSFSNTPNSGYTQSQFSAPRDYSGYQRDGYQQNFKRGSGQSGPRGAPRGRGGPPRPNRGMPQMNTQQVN

[2] = target: T1, human CAPRIN-1 on the cell membrane surface of human cancer cells (human); assay: flow cytometry, BT474 cells
[3] = target: T2, mouse CAPRIN-1 on mouse cancer cells (mouse, UniProt Q60865 2-707); assay: flow cytometry, Renca and 4T1 cells
T2 construct: whole, on cells
T2 sequence (looked up): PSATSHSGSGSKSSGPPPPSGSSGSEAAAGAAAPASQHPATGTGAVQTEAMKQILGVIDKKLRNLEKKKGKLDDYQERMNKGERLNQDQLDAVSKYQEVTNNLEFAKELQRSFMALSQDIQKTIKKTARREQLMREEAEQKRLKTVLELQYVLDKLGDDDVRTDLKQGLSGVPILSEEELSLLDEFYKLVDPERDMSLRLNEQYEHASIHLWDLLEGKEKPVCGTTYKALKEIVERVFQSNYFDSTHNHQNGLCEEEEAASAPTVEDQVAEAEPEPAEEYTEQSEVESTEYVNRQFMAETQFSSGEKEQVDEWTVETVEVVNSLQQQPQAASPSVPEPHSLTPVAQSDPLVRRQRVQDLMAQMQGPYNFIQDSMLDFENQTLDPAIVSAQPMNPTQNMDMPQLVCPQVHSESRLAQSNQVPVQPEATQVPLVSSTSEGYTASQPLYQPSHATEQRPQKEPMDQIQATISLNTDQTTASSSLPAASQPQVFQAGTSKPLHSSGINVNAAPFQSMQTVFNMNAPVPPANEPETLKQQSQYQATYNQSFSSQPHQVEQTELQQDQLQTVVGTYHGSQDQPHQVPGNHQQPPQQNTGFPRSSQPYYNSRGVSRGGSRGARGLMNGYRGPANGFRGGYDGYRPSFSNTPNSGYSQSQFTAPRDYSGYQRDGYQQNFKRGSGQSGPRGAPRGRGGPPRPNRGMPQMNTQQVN

[4] = target: T1, human CAPRIN-1 on the cell membrane surface of human cancer cells (human); assay: flow cytometry, human cancer cell lines

binding [1]: binds
binding [2]: binds
binding [3]: binds
binding [4]: binds
B4: Conjugate 157 (antibody, V domains shown)
VH: EVQLVESGGGLVQPGGSLRLSCAASGFSLSSHSLGWVRQAPGKGLEWIGDIRSGGSAYYANWAKGRFTISRDNSKNTLYLQMNSLRAEDTAVYYCTRTNGPSDLTNRLDLWGQGTLVTVSS
VL: EQVLTQSPSSLSASVGDRVTINCQASQSLYNNENLAWFQQKPGKVPKRLIYGASTLASGVSSRFSGSGSGTEFTLTISNLQPEDFAIYYCLGEFSCGSADCFAFGGGTKVEIK

binding [1]: binds
binding [2]: binds
binding [3]: binds
binding [4]: binds
B5: Conjugate 160 (antibody, V domains shown)
VH: B4 VH with Y94F
VL: B4 VL

binding [1]: binds
binding [2]: binds
binding [3]: binds
binding [4]: binds
B6: Conjugate 159 (antibody, V domains shown)
VH: B4 VH
VL: B4 VL with Q2I, I87T

binding [1]: binds
binding [2]: binds
binding [3]: binds
binding [4]: binds
B7: Conjugate 158 (antibody, V domains shown)
VH: B4 VH with Y94F
VL: B4 VL with Q2I, I87T

binding [1]: binds
binding [2]: binds
binding [3]: binds
binding [4]: binds
B8: Conjugate 156 (antibody, V domains shown)
VH: B4 VH with Y94F
VL: QVLTQSPSSLSASVGDRVTINCQASQSLYNNENLAWFQQKPGKVPKRLIYGASTLASGVSSRFSGSGSGTEFTLTISSLQCEDFAIYYCLGEFSCGSADCFAFGGGTKVEIK

Second part, the binder before the results:

B1: Conjugate 133 (antibody, V domains shown)
VH: DAELVKPGASVKISCKASGYTFTDHSIHWVQQKPEQGLEWIGYISPGNGNIKYNEKFKGKATLTADKSSSTAYMQLNSLTSEDSAVYFCKRSLGRGGPYYFDYWGQGTTVTVSS
VL: DIVLTQAAPSLPVTPGESVSISCRSSKSLLHSNGNTYLYWFLQRPGQSPQLLIYRMSNLASGVPDRFSGSGSGTAFTLRISRVEAEDVGVYYCMQHREYPVTFGSGPN
binding [1]: binds
binding [2]: binds
binding [3]: binds
binding [4]: binds

B2: Conjugate 128 (antibody, V domains shown)
VH: AVTLDESGGGLQTPGGALSLVCKASGFTFSGYDMLWVRQAPGKGLEWVAGIGSTGGGTDYGAAVKGRATISRDNGQSTVRLQLNNLRAEDTATYYCAKVAGGCNSGYCRDSPGSIDAWGHGTEVIVS
VL: AVTQQPASVSANPGETVKITCSGGGSRNYYGWYQQKSPGSVPVTVIYYDDQRPSNIPSRFSGALSGSTSTLTITGVQADDEAVYFCGSADSNTYEGSFGAGTTLTVL
binding [1]: binds
binding [2]: binds
binding [3]: binds
binding [4]: binds

B3: Conjugate 155 (antibody, V domains shown)
VH: B4 VH
VL: B8 VL
binding [1]: binds
binding [2]: binds
binding [3]: binds
binding [4]: binds

B9: Conjugate 132 (antibody, V domains shown)
VH: GAELVRSGASVKMSCKASGYSFTDYNMYWVKQTPGQGLEWIGYIYPGNGGTNYNQKFKGKATLTADTSSSTAYMQISSLTSEDSAVYFCARDYDDGGYAMDYWGQGTTVTVSS
VL: DIQMTQSPASLSASVGETVTITCRASGNIHNYLTWYQQKQGKSPQLLVYNAKTLADGVPSRFSGSGSGTQYSLKINRLQPEDFGSYYCQHFWNIPWTFGGGTKLNSR
binding [1]: binds
binding [2]: binds
binding [3]: binds
binding [4]: binds

B10: Conjugate 149 (antibody, V domains shown)
VH: GPDLVKPGASVKISCKASGYSFTAYYMHWVKQSHGKSLEWIGRVNPNNGGTTYNQKFKGKAILTVDKSSSTAYMELRSLTFEDSAVYYCARRIYYGYFDYWGQGTTVTVSS
VL: AFFAVSLGQRATISCKASQSVDYDGDSYMNWYQQKPGQPPKLLIYVASNLESGVPARFSGSGSGTDFTLNIHPVEEEDAATYYCQQSNEDPYTFGGGTKLEIKQ
binding [1]: binds
binding [2]: binds
binding [3]: binds
binding [4]: binds
